Data published in article doi:10.1101/2023.01.30.525655.

Key:
[1] = molecular target: T1, Biotin-MIF-6xHis (biotinylated human MIF-6xHis) (human) (UniProt P14174); test: pull-down
T1 sequence (chain, biotin (EZ-Link Sulfo-NHS-LC-Biotinylation Kit)): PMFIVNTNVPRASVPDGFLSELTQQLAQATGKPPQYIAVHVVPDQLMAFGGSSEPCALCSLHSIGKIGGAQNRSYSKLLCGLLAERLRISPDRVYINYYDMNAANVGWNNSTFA

[2] = molecular target: T2, RED-NHS-MIF-6xHis (human MIF-6xHis labelled with the RED-NHS dye) (human) (UniProt P14174); test: MST
T2 sequence (chain, RED-NHS dye (chemically labeled)): T1 sequence (chain, biotin (EZ-Link Sulfo-NHS-LC-Biotinylation Kit))

[3] = molecular target: T2, RED-NHS-MIF-6xHis (human MIF-6xHis labelled with the RED-NHS dye) (human); test: MST; remark: listed apart in the source
[4] = molecular target: T3, MIF-6xHis (human macrophage migration inhibitory factor, hexahistidine-tagged) (human) (UniProt P14174); test: SEC
T3 sequence: T1 sequence (chain, biotin (EZ-Link Sulfo-NHS-LC-Biotinylation Kit))

[5] = molecular target: MDL2, yeast two-hybrid fusion (Arabidopsis thaliana) (UniProt F4K9G4); test: two-hybrid

binding [1]	binding [2]	binding [3]	binding [4]	binding [5]	Substance
binds	no binding (only heat-denatured MDL1)	no binding (only with 100 µM p425)	binds		MDL1-6xHis (Arabidopsis thaliana MIF/D-DT-like protein 1, hexahistidine-tagged)
		no binding (only with 100 µM p425)			MDL2-6xHis (Arabidopsis thaliana MIF/D-DT-like protein 2, hexahistidine-tagged) (from UniProt F4K9G4)
		no binding (only with 100 µM p425)			MDL3-6xHis (Arabidopsis thaliana MIF/D-DT-like protein 3, hexahistidine-tagged) (from UniProt F4J4H3)
				binds	MDL1, yeast two-hybrid fusion (from UniProt F4KAK0)

Like-named read-outs stand apart in the source and are kept apart here. Results are given in words; binding and its absence hold for the method and conditions named. For some of these results: Binding can be weak; no strength is given. For some of these results: Tags and fused reporters may be left off the sequences shown. For some of these results: In cells and extracts the contact can be indirect.
